PubChem BioAssay AID1224828 | NIAID, 2016

- Aim: 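Find genes required for NF-kappaB p65 moving into the nucleus after LPS in mouse macrophages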 (primary screen)
- Cell system: mouse RAW264.7 G9 macrophage reporter cells (GFP-p65, Tnf promoter-mCherry)
- Knock-down reagent: siRNA pool against mouse genes, 100 nM
- Timing: 2 days siRNA transfection, then 40 min LPS before fixation
- Conditions: LPS (Salmonella minnesota R595) at 10 ng/ml
- Measured: 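Microscopy ratio of nuclear to perinuclear-ring GFP-p65 signal, scaled to the plate median; gene score is the average of two replicate robust z-scores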
- Reading the numbers: p65 translocation robust z-score: higher = more nuclear NF-kappaB p65 after LPS than the plate median; nuclear/cytoplasmic p65 ratio: higher = more nuclear NF-kappaB p65
- Call rule: 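Called active when z exceeds 3.3 or falls under -1.56 (median of Tlr4 controls), giving activity score of at least 50; no calls for control wells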
- Calls: active = hit (p65 shift raised or lowered); inactive = no clear change
Here is a random part of about 17,000 reagents. Of all reagents, 762 (4.5%) are marked active. 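Active calls include both raised and lowered p65 entry, mostly lowered; wells with fewer than 50 cells lack a z-score.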 Raw values are not corrected between plates. The numbers tell different reagents against one gene apart.

After knock-down of Ptms (parathymosin) the results were p65 translocation robust z-score -0.97; nuclear/cytoplasmic p65 ratio, rep 1 = 1.48; nuclear/cytoplasmic p65 ratio, rep 2 = 1.46; low cell count flag enough cells to score; inactive.
With knock-down of Rab2b (RAB2B, member RAS oncogene family), the record shows p65 translocation robust z-score -0.99; nuclear/cytoplasmic p65 ratio, rep 1 = 1.44; nuclear/cytoplasmic p65 ratio, rep 2 = 1.28; low cell count flag enough cells to score; inactive.
After knock-down of Apol7c (apolipoprotein L 7c), the screen gave p65 translocation robust z-score 1.19; nuclear/cytoplasmic p65 ratio, rep 1 = 1.6; nuclear/cytoplasmic p65 ratio, rep 2 = 1.37; low cell count flag enough cells to score; inactive.
With knock-down of Paf1 (Paf1, RNA polymerase II complex component), the record shows nuclear/cytoplasmic p65 ratio, rep 1 = 1.27; nuclear/cytoplasmic p65 ratio, rep 2 = 1.08; low cell count flag fewer than 50 cells per well; well left out of scoring; inactive.
Depletion of Ehbp1 (EH domain binding protein 1) gave: p65 translocation robust z-score -0.46; nuclear/cytoplasmic p65 ratio, rep 1 = 1.52; nuclear/cytoplasmic p65 ratio, rep 2 = 1.62; low cell count flag enough cells to score; inactive.
Klk1b11 (kallikrein 1-related peptidase b11) showed nuclear/cytoplasmic p65 ratio, rep 1 = 1.6; nuclear/cytoplasmic p65 ratio, rep 2 = 1.7; low cell count flag fewer than 50 cells per well; well left out of scoring; inactive.
Depletion of Mtpn (myotrophin) came out at: p65 translocation robust z-score 0.17; nuclear/cytoplasmic p65 ratio, rep 1 = 1.78; nuclear/cytoplasmic p65 ratio, rep 2 = 1.64; low cell count flag enough cells to score; inactive.
Silencing of Ccl27a (C-C motif chemokine ligand 27A) gave: p65 translocation robust z-score 0.22; nuclear/cytoplasmic p65 ratio, rep 1 = 1.41; nuclear/cytoplasmic p65 ratio, rep 2 = 1.41; low cell count flag enough cells to score; inactive.
Against Defa4 (defensin, alpha, 4), the values are p65 translocation robust z-score 1.16; nuclear/cytoplasmic p65 ratio, rep 1 = 1.79; nuclear/cytoplasmic p65 ratio, rep 2 = 1.66; low cell count flag enough cells to score; inactive.
After knock-down of Snx14 (sorting nexin 14) the results were p65 translocation robust z-score 0.78; nuclear/cytoplasmic p65 ratio, rep 1 = 1.42; nuclear/cytoplasmic p65 ratio, rep 2 = 1.32; low cell count flag enough cells to score; inactive.
Tspo (translocator protein) scored p65 translocation robust z-score 1.12; nuclear/cytoplasmic p65 ratio, rep 1 = 1.78; nuclear/cytoplasmic p65 ratio, rep 2 = 1.78; low cell count flag enough cells to score; inactive.
Against Tbc1d2 (TBC1 domain family, member 2), the entry reads nuclear/cytoplasmic p65 ratio, rep 1 = 1.21; nuclear/cytoplasmic p65 ratio, rep 2 = 1.69; low cell count flag fewer than 50 cells per well; well left out of scoring; inactive.
With knock-down of Ehmt1 (euchromatic histone methyltransferase 1), the record shows p65 translocation robust z-score -0.7; nuclear/cytoplasmic p65 ratio, rep 1 = 1.38; nuclear/cytoplasmic p65 ratio, rep 2 = 1.27; low cell count flag enough cells to score; inactive.
With knock-down of Nr0b1 (nuclear receptor subfamily 0, group B, member 1), the record shows p65 translocation robust z-score -0.15; nuclear/cytoplasmic p65 ratio, rep 1 = 1.41; nuclear/cytoplasmic p65 ratio, rep 2 = 1.41; low cell count flag enough cells to score; inactive.
After knock-down of Bend7 (BEN domain containing 7) the results were p65 translocation robust z-score -1.1; nuclear/cytoplasmic p65 ratio, rep 1 = 1.24; nuclear/cytoplasmic p65 ratio, rep 2 = 1.23; low cell count flag enough cells to score; inactive.
For Ifna4 (interferon alpha 4), the values are p65 translocation robust z-score -2.12; nuclear/cytoplasmic p65 ratio, rep 1 = 1.16; nuclear/cytoplasmic p65 ratio, rep 2 = 1.1; low cell count flag enough cells to score; active.

In a second layout: entries from further up
gene symbol,reagent no.,p65 translocation robust z-score,"nuclear/cytoplasmic p65 ratio, rep 1","nuclear/cytoplasmic p65 ratio, rep 2",low cell count flag,activity call
"Paf1 (Paf1, RNA polymerase II complex component)",1,,1.27,1.08,fewer than 50 cells per well; well left out of scoring,inactive
Ehbp1 (EH domain binding protein 1),1,-0.46,1.52,1.62,enough cells to score,inactive
Klk1b11 (kallikrein 1-related peptidase b11),1,,1.6,1.7,fewer than 50 cells per well; well left out of scoring,inactive
Mtpn (myotrophin),1,0.17,1.78,1.64,enough cells to score,inactive

More records follow:
Depletion of C4bp (complement component 4 binding protein) gave: p65 translocation robust z-score 1.01; nuclear/cytoplasmic p65 ratio, rep 1 = 1.56; nuclear/cytoplasmic p65 ratio, rep 2 = 1.68; low cell count flag enough cells to score; inactive.
Against Allc (allantoicase), the entry reads p65 translocation robust z-score -0.67; nuclear/cytoplasmic p65 ratio, rep 1 = 1.53; nuclear/cytoplasmic p65 ratio, rep 2 = 1.56; low cell count flag enough cells to score; inactive.
For Slc15a2, the values are p65 translocation robust z-score 0.54; nuclear/cytoplasmic p65 ratio, rep 1 = 1.56; nuclear/cytoplasmic p65 ratio, rep 2 = 1.24; low cell count flag enough cells to score; inactive.
Against Scgb2b26 (secretoglobin, family 2B, member 26) #1, the entry reads p65 translocation robust z-score 0.14; nuclear/cytoplasmic p65 ratio, rep 1 = 1.62; nuclear/cytoplasmic p65 ratio, rep 2 = 1.71; low cell count flag enough cells to score; inactive.
With knock-down of Scgb2b26 (secretoglobin, family 2B, member 26) #2, the record shows p65 translocation robust z-score 0.56; nuclear/cytoplasmic p65 ratio, rep 1 = 1.55; nuclear/cytoplasmic p65 ratio, rep 2 = 1.56; low cell count flag enough cells to score; inactive.
Depletion of Zfp27 (zinc finger protein 27) came out at: p65 translocation robust z-score -0.76; nuclear/cytoplasmic p65 ratio, rep 1 = 1.32; nuclear/cytoplasmic p65 ratio, rep 2 = 1.16; low cell count flag enough cells to score; inactive.
After knock-down of Rps23 (ribosomal protein S23) the results were nuclear/cytoplasmic p65 ratio, rep 1 = 1.2; nuclear/cytoplasmic p65 ratio, rep 2 = 1.05; low cell count flag fewer than 50 cells per well; well left out of scoring; inactive.
Against Rpa2 (replication protein A2), the entry reads p65 translocation robust z-score 0.1; nuclear/cytoplasmic p65 ratio, rep 1 = 1.54; nuclear/cytoplasmic p65 ratio, rep 2 = 1.14; low cell count flag enough cells to score; inactive.
Esm1 (endothelial cell-specific molecule 1) gave p65 translocation robust z-score -0.43; nuclear/cytoplasmic p65 ratio, rep 1 = 1.5; nuclear/cytoplasmic p65 ratio, rep 2 = 1.23; low cell count flag enough cells to score; inactive.
Rims2 (regulating synaptic membrane exocytosis 2) gave p65 translocation robust z-score -0.89; nuclear/cytoplasmic p65 ratio, rep 1 = 1.29; nuclear/cytoplasmic p65 ratio, rep 2 = 1.13; low cell count flag enough cells to score; inactive.
After knock-down of Faf2 (Fas associated factor family member 2), the record shows nuclear/cytoplasmic p65 ratio, rep 1 = 1.36; nuclear/cytoplasmic p65 ratio, rep 2 = 1.62; low cell count flag fewer than 50 cells per well; well left out of scoring; inactive.
